These are yes or no findings as the source states them, for the method shown. Binding seen in cells or lysates may run through a third protein. Some entries that bind do so weakly or less than the wild type.
Tests used:
[1] = target: transmembrane glycoprotein PAG/Cbp (PAG) (rat (endogenous in RBL-2H3)) (UniProt Q9JM80); assay: co-IP; PAG immunoprecipitated with mouse anti-PAG IgG (1 or 4 ug) and protein G-Sepharose overnight at 4 C from precleared NP-40 lysates (0.1% NP-40, 150 mM NaCl, pH 7.5), blotted with anti-Csk. Cells were resting WT RBL cells, and sh-Ctrl, sh-Shp2-#1 and sh-Shp2-#2 RBL cells sensitized, starved and stimulated with 10 ng/ml DNP for the indicated times.
[2] = target: C-terminal Src kinase (Csk) (rat (endogenous in RBL-2H3)) (UniProt P32577); assay: co-IP; Csk immunoprecipitated with anti-Csk and protein G-Sepharose overnight at 4 C from precleared NP-40 lysates, blotted with anti-phosphotyrosine (4G10). Cells were sh-Ctrl, sh-Shp2-#1 and sh-Shp2-#2 RBL cells sensitized, starved and stimulated with 10 ng/ml DNP for the indicated times.

By UniProt entry, the sequences of proteins in these tests, tags left out.
UniProt Q9JM80: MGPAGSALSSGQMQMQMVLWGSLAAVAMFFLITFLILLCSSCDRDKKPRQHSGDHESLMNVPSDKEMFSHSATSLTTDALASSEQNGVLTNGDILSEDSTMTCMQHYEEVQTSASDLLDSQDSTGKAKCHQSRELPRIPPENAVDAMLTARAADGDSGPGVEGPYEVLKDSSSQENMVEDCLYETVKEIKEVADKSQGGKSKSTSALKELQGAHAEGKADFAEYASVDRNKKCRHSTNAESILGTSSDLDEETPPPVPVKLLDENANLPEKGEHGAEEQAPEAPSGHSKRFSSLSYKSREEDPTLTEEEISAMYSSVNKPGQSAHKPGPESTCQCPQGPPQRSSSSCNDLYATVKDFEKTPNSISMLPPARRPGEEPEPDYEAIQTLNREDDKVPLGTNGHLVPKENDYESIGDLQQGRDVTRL
UniProt P32577: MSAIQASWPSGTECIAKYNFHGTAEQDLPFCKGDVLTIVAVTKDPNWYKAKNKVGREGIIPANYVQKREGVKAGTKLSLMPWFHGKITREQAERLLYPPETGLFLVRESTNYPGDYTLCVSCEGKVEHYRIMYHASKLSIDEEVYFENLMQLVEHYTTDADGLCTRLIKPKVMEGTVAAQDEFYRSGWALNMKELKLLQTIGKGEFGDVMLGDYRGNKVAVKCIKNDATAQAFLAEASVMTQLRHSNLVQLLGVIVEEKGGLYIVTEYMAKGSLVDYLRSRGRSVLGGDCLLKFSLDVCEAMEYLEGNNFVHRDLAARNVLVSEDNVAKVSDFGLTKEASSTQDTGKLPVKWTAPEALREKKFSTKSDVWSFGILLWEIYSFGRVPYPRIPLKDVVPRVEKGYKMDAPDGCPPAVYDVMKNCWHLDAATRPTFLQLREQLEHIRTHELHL

For “C-terminal Src kinase (Csk) (from UniProt P32577 1-450)”, which binding [1] is on record?
The binding was “binds”.

For “transmembrane glycoprotein PAG/Cbp (PAG) (from UniProt Q9JM80 1-424)”, which binding [2] is on record?
Its binding is “binds”.

— paper PMC3393662
